## Assay results

The results are deposited in PubChem (AID1224904; Broad Institute, 2016).

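Control-channel Italica luciferase signal in doxycycline-induced 293T-iDUX4 cells, given as percent activity after a 24-hour treatment.
The test concentration is not given here.
Percent change in the Italica control signal; more negative values mean stronger inhibition, which points to nonspecific, tet-on or cytotoxic effects.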

Values are in %.
Common to all entries: measured here: Italica tet-on control reporter.
Part of the compounds only, not a random draw; the main read-out is not listed here.

COc1ccccc1C#Cc1ccc([C@@H]2[C@H]3CN(S(C)(=O)=O)CCCCN3[C@H]2CO)cc1 gave activity change -14.3%.
CO[C@H]1CN(C)C(=O)c2ccc(NC(=O)NC(C)C)cc2OC[C@H](C)N(Cc2ccc(-c3ccccn3)cc2)C[C@H]1C gave activity change -0.1901%.
CN1c2ccc(-c3cccc(F)c3)cc2[C@H]2[C@H](CCN2C(=O)c2cccc(F)c2)[C@H]1CO gave activity change -7.973%.
CC(C)NC(=O)N1[C@@H](CO)[C@@H](c2ccccc2)C12CN(Cc1ccc(F)cc1)C2 gave activity change -14.75%.
COc1ccc(S(=O)(=O)N2C[C@@H](O)COC[C@@H]3O[C@H](CC(=O)NCc4ccc(Cl)c(Cl)c4)CC[C@H]32)cc1 gave activity change -16.73%.
COc1ccc2c3c([nH]c2c1)[C@@H](CO)N(Cc1ccc(Cl)cc1)CC31CCN(Cc2ccccc2)CC1 gave activity change -67.84%.
CN(C)C(=O)c1cccc(-c2ccc3c(c2)[C@@H]2[C@@H](CCN2C(=O)C2CCC2)[C@H](CO)N3)c1 gave activity change -23.2%.
CCC(=O)N1CCCCN2[C@H](C1)[C@@H](c1ccc(/C=C/c3ccccc3)cc1)[C@@H]2CO gave activity change 0.01989%.
CN1c2ccc(-c3ccc(F)cc3)cc2[C@H]2[C@H](CCN2S(=O)(=O)c2ccc(F)cc2)[C@H]1CO gave activity change -66.64%.
Cc1ccccc1S(=O)(=O)N1C[C@@H](O)COC[C@H]2O[C@H](CC(=O)N3CCC(Cc4ccccc4)CC3)CC[C@@H]21 gave activity change -21.2%.
CC(C)[C@H](C)NC(=O)N(C)C[C@H]1OCc2ccccc2-c2c(n(C)c3ccccc23)C(=O)N([C@H](C)CO)C[C@@H]1C gave activity change -65.96%.
CO[C@H]1CN(C)C(=O)c2cc(NS(=O)(=O)c3cccc(F)c3)ccc2OC[C@H](C)N(Cc2cc(F)ccc2F)C[C@H]1C gave activity change -19.64%.
O=C(C[C@H]1C[C@H]2c3cc(NC(=O)c4ccc5c(c4)OCO5)ccc3O[C@H]2[C@H](CO)O1)NCc1ccc(Cl)cc1 gave activity change -26.3%.
CCCNC(=O)N1CC2(CCN(C(=O)c3cccc(F)c3)CC2)c2c([nH]c3cc(OC)ccc23)[C@@H]1CO gave activity change -12.3%.
O=C(c1cccc(F)c1)N1CCCCN2[C@@H](CO)[C@H](c3ccc(-c4ccccc4)cc3)[C@@H]2C1 gave activity change -1.692%.
O=C(Nc1ccc(Cl)cc1)N[C@@H]1CC[C@@H](CCn2cc(-c3ccccc3F)nn2)O[C@H]1CO gave activity change -14.51%.
COc1ccc(C#Cc2ccc([C@H]3[C@H]4CN(C(=O)c5ccc(F)cc5)CC(=O)N4[C@H]3CO)cc2)cc1 gave activity change -11.22%.
O=C(c1ccc2c(c1)OCO2)N1C[C@@H]2[C@H](c3ccccc31)[C@@H](CO)N2CC1CCCC1 gave activity change -13.3%.
COCC#Cc1ccc([C@H]2[C@@H](CO)N3CCCCN(S(=O)(=O)c4ccc(OC)cc4)C[C@@H]23)cc1 gave activity change -52.23%.
O=C(Nc1ccc(F)cc1)N1CC(=O)N2[C@H](C1)[C@@H](c1ccc(C#Cc3cccnc3)cc1)[C@@H]2CO gave activity change -9.866%.
OC[C@@H]1[C@@H](c2ccccc2)C2(CN(Cc3cccc(F)c3)C2)N1CC1CCCC1 gave activity change -16.46%.
O=C(C[C@H]1CC[C@@H]2[C@H](COC[C@@H](O)CN2C(=O)Nc2ccc(Cl)cc2)O1)NCC1CCCCC1 gave activity change -6.185%.
COc1ccc2c3c(n(C)c2c1)[C@@H](CO)N(Cc1ccccc1F)CC31CCN(CC2CC2)CC1 gave activity change -47.73%.
O=C(C[C@H]1CC[C@H]2[C@@H](COC[C@@H](O)CN2S(=O)(=O)c2cccc(Cl)c2)O1)Nc1ccc(-c2ccccc2)cc1 gave activity change -28.05%.
C[C@H](CO)N1C[C@H](C)[C@H](CN(C)Cc2ccc(F)cc2)OCc2ccccc2-c2c(n(C)c3ccccc23)C1=O gave activity change -67.58%.
COc1cccc(-c2ccc3c(c2)[C@@H]2[C@@H](CCN2C(=O)c2ccc(F)cc2)[C@H](CO)N3C)c1 gave activity change -66.42%.

Once more, the final 3:

Compound,activity change (%)
O=C(C[C@H]1CC[C@H]2[C@@H](COC[C@@H](O)CN2S(=O)(=O)c2cccc(Cl)c2)O1)Nc1ccc(-c2ccccc2)cc1,-28.05
C[C@H](CO)N1C[C@H](C)[C@H](CN(C)Cc2ccc(F)cc2)OCc2ccccc2-c2c(n(C)c3ccccc23)C1=O,-67.58
COc1cccc(-c2ccc3c(c2)[C@@H]2[C@@H](CCN2C(=O)c2ccc(F)cc2)[C@H](CO)N3C)c1,-66.42